## Primary screen of a compound library

The chains behind the UniProt entries cited, without tags or fusion partners. Residues count along the entry.
UniProt P9WNZ1, whole entry: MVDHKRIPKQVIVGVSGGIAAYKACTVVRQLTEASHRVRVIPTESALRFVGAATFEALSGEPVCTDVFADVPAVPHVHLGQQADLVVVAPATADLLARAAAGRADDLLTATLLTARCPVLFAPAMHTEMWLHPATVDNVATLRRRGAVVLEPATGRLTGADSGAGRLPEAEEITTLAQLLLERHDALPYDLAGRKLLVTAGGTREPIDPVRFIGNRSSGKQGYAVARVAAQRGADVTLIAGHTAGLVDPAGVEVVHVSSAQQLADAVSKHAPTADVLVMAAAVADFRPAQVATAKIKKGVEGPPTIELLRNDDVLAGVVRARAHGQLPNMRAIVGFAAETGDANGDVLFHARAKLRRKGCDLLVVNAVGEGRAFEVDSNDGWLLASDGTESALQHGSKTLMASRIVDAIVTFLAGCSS
UniProt I6X8D2, whole entry: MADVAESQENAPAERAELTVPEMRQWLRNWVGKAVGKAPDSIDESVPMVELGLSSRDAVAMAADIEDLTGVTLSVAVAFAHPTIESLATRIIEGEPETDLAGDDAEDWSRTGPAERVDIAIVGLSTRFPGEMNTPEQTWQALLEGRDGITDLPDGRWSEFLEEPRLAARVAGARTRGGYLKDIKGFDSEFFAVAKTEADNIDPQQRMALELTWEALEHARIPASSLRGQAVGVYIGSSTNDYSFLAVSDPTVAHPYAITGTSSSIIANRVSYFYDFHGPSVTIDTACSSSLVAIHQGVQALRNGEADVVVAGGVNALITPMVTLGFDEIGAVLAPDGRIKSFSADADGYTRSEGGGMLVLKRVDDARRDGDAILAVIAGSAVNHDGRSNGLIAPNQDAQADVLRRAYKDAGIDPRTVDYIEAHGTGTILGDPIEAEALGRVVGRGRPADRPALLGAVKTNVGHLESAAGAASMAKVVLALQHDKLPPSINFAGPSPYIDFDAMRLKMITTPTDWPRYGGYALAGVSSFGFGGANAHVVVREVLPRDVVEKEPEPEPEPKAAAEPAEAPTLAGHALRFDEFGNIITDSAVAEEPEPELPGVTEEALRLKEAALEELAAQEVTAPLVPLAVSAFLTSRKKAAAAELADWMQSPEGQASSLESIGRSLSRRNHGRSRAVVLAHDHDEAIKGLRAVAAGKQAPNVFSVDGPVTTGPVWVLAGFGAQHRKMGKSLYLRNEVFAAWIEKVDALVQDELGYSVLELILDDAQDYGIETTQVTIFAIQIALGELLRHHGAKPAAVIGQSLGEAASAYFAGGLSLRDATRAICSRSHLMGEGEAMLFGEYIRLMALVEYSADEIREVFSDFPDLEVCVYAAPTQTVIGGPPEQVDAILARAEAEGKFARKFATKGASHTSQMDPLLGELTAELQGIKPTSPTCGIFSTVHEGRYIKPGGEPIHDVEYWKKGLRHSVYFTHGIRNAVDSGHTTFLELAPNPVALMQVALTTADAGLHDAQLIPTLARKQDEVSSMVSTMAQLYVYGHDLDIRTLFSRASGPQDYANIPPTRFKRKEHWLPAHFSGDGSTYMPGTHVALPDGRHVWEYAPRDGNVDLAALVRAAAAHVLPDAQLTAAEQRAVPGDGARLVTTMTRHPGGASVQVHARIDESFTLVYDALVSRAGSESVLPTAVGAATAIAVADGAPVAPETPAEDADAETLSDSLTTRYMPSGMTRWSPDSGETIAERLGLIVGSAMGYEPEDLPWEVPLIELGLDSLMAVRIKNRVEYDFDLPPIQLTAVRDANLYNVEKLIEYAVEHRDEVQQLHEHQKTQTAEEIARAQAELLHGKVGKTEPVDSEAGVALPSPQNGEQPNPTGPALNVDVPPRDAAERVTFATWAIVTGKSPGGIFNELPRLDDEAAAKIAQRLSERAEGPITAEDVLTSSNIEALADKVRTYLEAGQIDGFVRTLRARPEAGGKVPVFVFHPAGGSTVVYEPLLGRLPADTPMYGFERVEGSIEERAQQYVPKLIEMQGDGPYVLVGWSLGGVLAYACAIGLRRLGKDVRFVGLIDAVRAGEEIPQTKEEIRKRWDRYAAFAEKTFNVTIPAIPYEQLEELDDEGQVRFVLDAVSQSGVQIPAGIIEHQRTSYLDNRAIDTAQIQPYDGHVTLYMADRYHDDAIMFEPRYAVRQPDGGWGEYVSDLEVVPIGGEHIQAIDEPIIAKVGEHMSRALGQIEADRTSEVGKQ
UniProt P9WPC5, whole entry: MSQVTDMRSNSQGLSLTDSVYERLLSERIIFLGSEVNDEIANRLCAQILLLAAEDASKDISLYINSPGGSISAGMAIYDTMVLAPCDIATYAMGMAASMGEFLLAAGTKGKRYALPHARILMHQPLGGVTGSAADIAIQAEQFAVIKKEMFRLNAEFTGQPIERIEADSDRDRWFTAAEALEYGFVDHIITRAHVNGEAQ
UniProt P9WPC3, whole entry partner: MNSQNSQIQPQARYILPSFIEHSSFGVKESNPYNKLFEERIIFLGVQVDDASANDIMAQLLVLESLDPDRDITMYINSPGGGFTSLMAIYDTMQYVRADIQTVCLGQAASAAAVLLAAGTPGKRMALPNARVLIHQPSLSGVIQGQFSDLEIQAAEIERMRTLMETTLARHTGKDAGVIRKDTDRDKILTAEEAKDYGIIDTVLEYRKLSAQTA
UniProt Q4DA54, 1-478: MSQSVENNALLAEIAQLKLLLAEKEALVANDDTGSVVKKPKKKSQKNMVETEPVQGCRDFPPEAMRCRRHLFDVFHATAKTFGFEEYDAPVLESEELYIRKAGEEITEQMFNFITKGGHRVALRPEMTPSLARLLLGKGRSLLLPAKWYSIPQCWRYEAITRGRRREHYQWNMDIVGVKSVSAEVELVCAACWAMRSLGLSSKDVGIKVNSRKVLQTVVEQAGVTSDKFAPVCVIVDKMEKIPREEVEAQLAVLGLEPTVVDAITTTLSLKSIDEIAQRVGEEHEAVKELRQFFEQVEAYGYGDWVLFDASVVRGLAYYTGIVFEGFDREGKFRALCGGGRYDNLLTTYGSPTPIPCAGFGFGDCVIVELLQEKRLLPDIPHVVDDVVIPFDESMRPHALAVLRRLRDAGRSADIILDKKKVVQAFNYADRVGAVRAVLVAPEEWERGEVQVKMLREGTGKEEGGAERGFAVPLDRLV

From ChEMBL document CHEMBL3988442, “University of Dundee, Small-Polar-MMV Screening Library” (2021).

A: 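Enzyme assay of CoaBC with a phosphate dye (Biomol Green) read at 650 nm. Target: Coenzyme A biosynthesis protein CoaBC, Mycobacterium tuberculosis (UniProt P9WNZ1). Compounds at 30 µM. Direction is inferred from only a few compounds that gave an IC50; most scored high, so higher reads as stronger inhibition. Most strong results did not repeat in a second test. Of about 67,000 compounds tested this way, about 40 (0.06%) reached 50% or more in at least one test.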
B: 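Cell assay of Leishmania donovani living inside macrophages; the read-out is not stated. Tested at 30 µM. The record gives no direction; compounds that gave an IC50 in retests scored well above the rest, so higher reads as stronger inhibition. Size under these conditions: about 69,000 compounds, about 1,000 of them at 50% or above in at least one test.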
C: 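Enzyme assay of the thioesterase domain of polyketide synthase 13; the read-out is not stated. Target: Polyketide synthase Pks13, Mycobacterium tuberculosis (UniProt I6X8D2). Compounds at 30 µM. The record gives no direction; the compounds picked for IC50 retests had high values, so higher reads as stronger inhibition. Of about 67,000 compounds tested this way, about 300 (0.46%) reached 50% or more in at least one test.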
D: 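ClpP1P2, Mycobacterium tuberculosis (UniProt P9WPC5 and UniProt P9WPC3). Protease assay of ClpP1P2, read by the AMC dye that it sets free. Compounds at 50 µM. Direction is inferred from only a few compounds that gave an IC50; most scored high, so higher reads as stronger inhibition. Most other retested compounds had strongly negative values. Of about 69,000 compounds tested this way, about 10 (0.015%) reached 50% or more in at least one test.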
E: 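Enzyme assay of histidyl-tRNA synthetase; the read-out is not stated. Target: Histidine-tRNA ligase, Trypanosoma cruzi CL Brener (UniProt Q4DA54). Compounds at 30 µM. Direction is inferred from retests: higher values go with stronger inhibition. Of about 69,000 compounds tested this way, about 31 (0.045%) reached 50% or more in at least one test.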

The filed quantity is “Percent Effect” (%).
How 0% and 100% were set is not recorded. Most values in the screen are low, and negative values occur.
The compounds are a random part of those screened.
Two or more numbers in one place are separate tests of the same structure; such repeats can differ widely.
A dash means the value is not listed here; it may have been measured.

SMILES | A | B | C | D | E
CC(=O)N(Cc1noc(C)n1)C1CCN(Cc2c(C)noc2C)C1 (stereo not given) | 1.609% | 6.608% | -12.38% | -2.569% | 4.274%
Cc1ccc(N2Cc3nc(=O)[nH]n3C2=O)cc1 | -2.784% | -9.481% | 7.386% | -1.875% | 1.136%
[H][C@@]12CCN(c3ncccn3)[C@]1([H])CC[C@H](C(=O)N1CCCCO1)O2 | - | -0.1772% | - | - | -
CC(C)N1CCCC2(CCN(Cc3nncn3C(C)C)C2)C1=O (stereo not given) | 5.977% | -4.137% | 7.942% | 13.84% | 8.04%
O=C(O)C(F)(F)F.[H][C@@]12CCCO[C@]1([H])[C@H](NC(=O)N(C)C)CN2Cc1ccc2c(c1)OCO2 | - | 27.1% | - | - | -
[H][C@]12CC[C@]([H])(CN(C3CCOCC3)C1)N(Cc1ccc(N(C)C)nc1)C2 | - | 17.05% | - | - | -
O=C(O)C(F)(F)F.[H][C@@]12CN(C(=O)C3CCOC3)C[C@]1([H])C(=O)N(Cc1ccncc1)C2 (stereo not given in full) | - | 10.17% | - | - | -
CC(C)c1nc(CNC(=O)c2ccc(C(C)N3CCCCC3)o2)cs1 (stereo not given) | 1.222% | -8.64% | -5.02% | 12.93% | -3.279%
COCCN1CCCC(c2ccnc3c(C(N)=O)cnn23)C1 (stereo not given) | 2.632% | 44.27% | -1.222% | -3.191% | -1.149%
CN(Cc1cc(C(C)(C)C)n[nH]1)C(=O)c1ccccc1C1CCNC1 (stereo not given) | 5.656% | 13.84% | -14.24% | 8.802% | 4.469%
COc1ccc(OCCN2CCC(N3CCNC3=O)CC2)cc1 | 6.849% | 24.2% | -30.81% | 2.668% | 3.79%
O=C(CC(F)(F)F)N1C[C@H]2CCN[C@H]2C1 | 1.333% | - | 3.662% | -2.413% | 10.61%
COCCN1CCN(c2cccc(C)n2)Cc2ccc(C)nc21.O=C(O)C(F)(F)F.O=C(O)C(F)(F)F | - | 30.23% | - | - | -
Cc1ccc(NC2CCN(C(=O)CCc3nccs3)CC2)nn1 | 3.07% | 25.45% | 0.1831% | -15.19% | 0.5814%
CN(C)C(=O)CO[C@@H]1CN(Cc2ccccc2)[C@@H]2CCCO[C@@H]21 | 7.993% | - | -7.361% | -4.863% | 0%
CC(C)CCN1Cc2c(C(=O)N3CCCC3)nn(C)c2C1 | - | - | 3.859% | -8.562% | 2.454%
Cc1c[nH]nc1C1CCCN(C(=O)Cn2cccn2)C1 (stereo not given) | 2.596% | 23.26% | 3.285% | -13.2% | 7.605%
CC(C)(C)c1n[nH]c(C2CN(Cc3ncc[nH]3)CCO2)n1 (stereo not given) | -0.1209% | 21.39% | -26.52% | -6.595% | 7.143%
Cc1csc(C2CCCN(C(=O)c3cccc4c3OCO4)C2)n1 (stereo not given) | 3.435% | 25.05% | -2.156% | 2.869% | 3.38%
CC(C)Nc1ncnc2c1CCN(Cc1nccn1C)CC2 | 3.893% | - | -17.15% | 8.487% | 3.448%
CC(NC(=O)NC1CCN(Cc2ccccc2)CC1)c1nncn1C (stereo not given) | -3.226% | 3.192% | 8.499% | -3.311% | 8.374%
O=C1CO[C@H]2CN(S(=O)(=O)c3ccccc3)C[C@H]2N1Cc1ccccn1 | 14.22% | - | -35.9% | -8.17% | 12.87%
OCc1ccc(CN(CCCn2ccnc2)Cc2cccnc2)o1 | 2.3% | 18.28% | -21.86% | -5.45% | 11.88%
Cc1ccc(CN2CCC3(CCC3NS(=O)(=O)c3ccccc3)CC2)o1 (stereo not given) | - | - | 9.612% | -3.857% | 3.797%
Cc1nn(C)cc1-c1cncn1CCN(C)C1CCCC1 | -0.9709% | - | 3.233% | -24.07% | 7.28%
[H][C@@]12C[C@H](C(=O)NC3CCC3)[C@@]([H])(CN(S(=O)(=O)c3ccccc3)C1)O2 | - | 14.57% | - | - | -
CCc1ncc2c(n1)CN(CC(=O)NCCOc1ccccc1)CC2 | 7.179% | -4.931% | -10.63% | 2.848% | 11.36%
Cc1ncccc1NC(=O)[C@@H]1CC[C@@H]2[C@@H](CCN2Cc2cnn(C)c2)O1 | -0.8157% | - | -12.95% | -2.263% | 7.921%
Cn1c(C(F)(F)F)nn(CCNC(=O)c2nc3ccccc3s2)c1=O | -2.871% | 9.429% | -6.182% | -7.358% | 6.122%
CC(C)Cc1cc(C(=O)N2CC(OCc3ccccc3F)C2)n(C)n1 | -12.96% | 16.66% | -15.03% | -6.359% | 5.759%
CN(CCCc1cnn(C)c1)C(=O)Nc1cccc(C#N)c1 | 1.304% | 21.71% | -9.806% | -7.434% | 5.882%
COCCC(=O)Nc1nc2c(OC)cc(F)cc2s1 | 5.732% | 2.383% | -20.45% | 1.181% | 3.867%
CN(Cc1ccnc2ccccc12)C1CCS(=O)(=O)C1.O=C(O)CC(O)(CC(=O)O)C(=O)O (stereo not given) | - | -19.32% | - | - | -
Cc1cn2c(=O)c(-c3ccnc(N(C)C4CCCCC4)n3)cnc2s1 | 3.735% | 7.03% and 20.36% | 11.62% | -11.75% | 6.78%
O=S(=O)(c1cccnc1)N1C[C@H]2CCC[C@@]2(COc2ccccn2)C1 | 6.266% | - | -19.19% | -10.9% | 0%
[H][C@@]12CCN(C[C@@H]1CN1CCCC1)[C@@H](CNC(=O)c1ccco1)C2 | - | 18.82% | - | - | -
O=C(Cn1[nH]c2ccccc2c1=O)N1CCCC(CC2CC2)(C(=O)O)C1 (stereo not given) | 1.106% | 5.324% | 13.83% | -8.298% | 22.62%
COc1cc(C(=O)NCCCO)cc2occc12 | -5.665% | 17.28% | -4.26% | 2.653% | 3.509%
Cc1cc(F)c(S(=O)(=O)NCCCN2CCC(O)CC2)cc1F | -5.909% | 11.74% | 1.306% | 10.67% | 3.347%
COCCN1C(=O)CCC12CCN(c1ncc(F)cn1)CC2 | 6.105% | - | -26.81% | 0.5593% | 4.301%
CCn1cc2c(n1)C(COC)CN(C(=O)c1ccccn1)C2 (stereo not given) | 8.824% | 9.99% | -11.13% | 1.665% | 5.785%
Cc1nc(C2CCCN(C(=O)c3cnn(C(C)(C)C)c3)C2)no1 (stereo not given) | 3.916% | -25.61% | -12.92% | -4.934% | -0.3759%
[H][C@]12CC[C@]([H])(CN(Cc3ccccc3)C1)N(C(=O)c1cnc(SC)nc1)C2 | - | 14.18% | - | - | -

5 of the entries, repeated:

SMILES	A	B	C	D	E
Cc1ncccc1NC(=O)[C@@H]1CC[C@@H]2[C@@H](CCN2Cc2cnn(C)c2)O1	-0.8157%	-	-12.95%	-2.263%	7.921%
Cc1cc(F)c(S(=O)(=O)NCCCN2CCC(O)CC2)cc1F	-5.909%	11.74%	1.306%	10.67%	3.347%
CC(C)c1nc(CNC(=O)c2ccc(C(C)N3CCCCC3)o2)cs1 (stereo not given)	1.222%	-8.64%	-5.02%	12.93%	-3.279%
Cc1nc(C2CCCN(C(=O)c3cnn(C(C)(C)C)c3)C2)no1 (stereo not given)	3.916%	-25.61%	-12.92%	-4.934%	-0.3759%
O=C(CC(F)(F)F)N1C[C@H]2CCN[C@H]2C1	1.333%	-	3.662%	-2.413%	10.61%